Values from PubChem BioAssay AID652243 (Drosophila RNAi Screening Center, 2013).
In all, the deposit lists about 24,000 reagents; below is a random part of those that have a named target and a result. Of all reagents, 246 (1%) were called active. 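Plates not normalised; calls are printed but the firefly/Renilla ratio behind them is not deposited; fold cut for lowering reported inconsistently.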 Raw values are not corrected between plates. Not stated in the record: the amount of reagent.

Screen: 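Fly genes required for human androgen receptor driven transcription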 (primary screen)
System: Drosophila S2R+ cells
Reagent: long dsRNA against Drosophila genes
Timing: 72 h (48 h, then 24 h hormone)
Conditions: synthetic androgen R1881 at 10 nM for 24 h
Detection: 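Per-well raw luminescence of the androgen-driven firefly reporter and of the Renilla control, two replicates each, without normalisation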
Scale: firefly reporter light: higher = more light from androgen-responsive reporter; Renilla control light: higher = more constitutive control signal (cell number, transfection)
Call rule: 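Hit when the log firefly-to-Renilla ratio dropped or increased by a fixed fold versus the mean of GFP or LacZ controls across duplicate plates; lowering cut given as 1.5 and as 3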
Calls: active = hit: reporter lowered or raised; inactive = no hit

ERR [DRSC10840] — firefly reporter light, replicate 1: 8.77e5; firefly reporter light, replicate 2: 9.72e5; Renilla control light, replicate 1: 9.89e5; Renilla control light, replicate 2: 1.55e6; activity call: inactive
Uch-L5R [DRSC19825] — firefly reporter light, replicate 1: 2.68e5; firefly reporter light, replicate 2: 2.74e5; Renilla control light, replicate 1: 2.39e6; Renilla control light, replicate 2: 2.36e6; activity call: inactive
CG15563 [DRSC15101] — firefly reporter light, replicate 1: 1.75e5; firefly reporter light, replicate 2: 1.75e5; Renilla control light, replicate 1: 2.36e6; Renilla control light, replicate 2: 2.78e6; activity call: inactive
CG15563 [DRSC27442] — firefly reporter light, replicate 1: 6.50e5; firefly reporter light, replicate 2: 5.50e5; Renilla control light, replicate 1: 1.06e6; Renilla control light, replicate 2: 1.19e6; activity call: inactive
kay [DRSC13962] — firefly reporter light, replicate 1: 1.99e6; firefly reporter light, replicate 2: 1.12e6; Renilla control light, replicate 1: 2.50e6; Renilla control light, replicate 2: 1.22e6; activity call: inactive
kay [DRSC16977] — firefly reporter light, replicate 1: 86086; firefly reporter light, replicate 2: 59848; Renilla control light, replicate 1: 5.14e5; Renilla control light, replicate 2: 3.17e5; activity call: inactive
Tep2 [DRSC02679] — firefly reporter light, replicate 1: 2.11e5; firefly reporter light, replicate 2: 1.89e5; Renilla control light, replicate 1: 1.53e6; Renilla control light, replicate 2: 1.23e6; activity call: inactive
Tep2 [DRSC03451] — firefly reporter light, replicate 1: 2.41e5; firefly reporter light, replicate 2: 1.98e5; Renilla control light, replicate 1: 2.00e6; Renilla control light, replicate 2: 1.45e6; activity call: inactive
Him [DRSC19638] — firefly reporter light, replicate 1: 4.76e5; firefly reporter light, replicate 2: 6.01e5; Renilla control light, replicate 1: 4.19e6; Renilla control light, replicate 2: 4.12e6; activity call: inactive
Nepl11 [DRSC12333] — firefly reporter light, replicate 1: 3.67e5; firefly reporter light, replicate 2: 3.20e5; Renilla control light, replicate 1: 2.59e6; Renilla control light, replicate 2: 2.60e6; activity call: inactive
Fdx1 [DRSC11167] — firefly reporter light, replicate 1: 2.11e5; firefly reporter light, replicate 2: 1.50e5; Renilla control light, replicate 1: 2.63e6; Renilla control light, replicate 2: 2.38e6; activity call: inactive
Fdx1 [DRSC28052] — firefly reporter light, replicate 1: 3.08e5; firefly reporter light, replicate 2: 2.68e5; Renilla control light, replicate 1: 1.31e6; Renilla control light, replicate 2: 1.10e6; activity call: inactive
CG33095 [DRSC14441] — firefly reporter light, replicate 1: 1.65e5; firefly reporter light, replicate 2: 1.12e5; Renilla control light, replicate 1: 2.00e6; Renilla control light, replicate 2: 1.22e6; activity call: inactive
CG14221 [DRSC19578] — firefly reporter light, replicate 1: 47541; firefly reporter light, replicate 2: 87149; Renilla control light, replicate 1: 1.78e5; Renilla control light, replicate 2: 1.53e5; activity call: inactive
CG31121 [DRSC15361] — firefly reporter light, replicate 1: 1.38e5; firefly reporter light, replicate 2: 1.61e5; Renilla control light, replicate 1: 2.31e6; Renilla control light, replicate 2: 2.07e6; activity call: inactive
CG31121 [DRSC15363] — firefly reporter light, replicate 1: 2.41e5; firefly reporter light, replicate 2: 2.11e5; Renilla control light, replicate 1: 1.89e6; Renilla control light, replicate 2: 2.13e6; activity call: inactive
CG1299 [DRSC08300] — firefly reporter light, replicate 1: 1.41e5; firefly reporter light, replicate 2: 2.18e5; Renilla control light, replicate 1: 2.05e6; Renilla control light, replicate 2: 2.53e6; activity call: inactive
Polr2A [DRSC20280] — firefly reporter light, replicate 1: 1.65e5; firefly reporter light, replicate 2: 1.39e5; Renilla control light, replicate 1: 5.02e5; Renilla control light, replicate 2: 3.80e5; activity call: inactive
Polr2A [DRSC27157] — firefly reporter light, replicate 1: 2.55e5; firefly reporter light, replicate 2: 2.12e5; Renilla control light, replicate 1: 3.48e5; Renilla control light, replicate 2: 3.71e5; activity call: inactive
Cyt-c1L [DRSC14860] — firefly reporter light, replicate 1: 2.78e5; firefly reporter light, replicate 2: 2.80e5; Renilla control light, replicate 1: 2.16e6; Renilla control light, replicate 2: 2.11e6; activity call: inactive
Cyt-c1L [DRSC22096] — firefly reporter light, replicate 1: 1.37e6; firefly reporter light, replicate 2: 1.31e6; Renilla control light, replicate 1: 1.62e6; Renilla control light, replicate 2: 1.59e6; activity call: inactive
Cyt-c1L [DRSC28229] — firefly reporter light, replicate 1: 4.27e5; firefly reporter light, replicate 2: 7.06e5; Renilla control light, replicate 1: 1.07e6; Renilla control light, replicate 2: 1.31e6; activity call: inactive
